No constants are given. Whether binding was seen depends on the method and setting. In cells and extracts the contact can be indirect. Some binding calls cover weakened binding; strength is not graded here. Where a sequence is shown, tags or fusion partners need not be part of it.
Experiments:
[1] = target: T1, Sirtuin 4 (SIRT4), Flag-tagged, overexpressed by lentivirus (UniProt Q9Y6E7); assay: co-IP; lysate of SIRT4-overexpressing PC-3 and 22rv1 cells in IP lysis buffer; immunoprecipitated with anti-Flag antibody (4-8 ug) at 4°C, protein A/G magnetic beads; GLUD1 detected by western blotting; IgG control
T1 sequence: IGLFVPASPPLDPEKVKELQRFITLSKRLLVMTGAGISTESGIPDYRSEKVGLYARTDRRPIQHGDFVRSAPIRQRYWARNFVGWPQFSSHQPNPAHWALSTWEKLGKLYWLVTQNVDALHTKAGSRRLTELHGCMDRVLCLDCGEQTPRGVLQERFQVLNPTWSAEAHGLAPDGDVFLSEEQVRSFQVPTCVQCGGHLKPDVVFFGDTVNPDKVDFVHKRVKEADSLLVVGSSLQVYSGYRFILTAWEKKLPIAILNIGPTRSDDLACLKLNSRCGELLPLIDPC

By UniProt entry, the sequences of proteins in these tests, tags left out. Residues count along the entry.
UniProt P00367, residues 54-558: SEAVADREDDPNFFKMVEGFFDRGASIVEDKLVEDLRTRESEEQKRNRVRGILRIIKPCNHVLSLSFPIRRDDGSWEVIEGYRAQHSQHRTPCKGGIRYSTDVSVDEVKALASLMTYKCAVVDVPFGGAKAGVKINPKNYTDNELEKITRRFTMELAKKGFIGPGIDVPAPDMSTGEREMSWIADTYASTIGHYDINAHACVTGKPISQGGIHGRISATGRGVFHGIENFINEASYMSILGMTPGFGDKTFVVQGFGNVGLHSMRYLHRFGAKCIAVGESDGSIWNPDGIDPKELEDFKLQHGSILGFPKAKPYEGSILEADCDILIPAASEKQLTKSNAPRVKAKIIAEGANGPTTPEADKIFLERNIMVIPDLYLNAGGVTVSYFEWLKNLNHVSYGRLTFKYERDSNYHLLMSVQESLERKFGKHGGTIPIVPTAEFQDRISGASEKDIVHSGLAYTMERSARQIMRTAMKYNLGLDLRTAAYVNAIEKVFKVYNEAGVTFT

[2] = target: glutamate dehydrogenase 1 (GLUD1) (human (endogenous in PC-3 and 22rv1)) (UniProt P00367); assay: co-IP; lysate of PC-3 and 22rv1 cells in IP lysis buffer; immunoprecipitated with GLUD1 antibody (rabbit, 4-8 ug) at 4°C, protein A/G magnetic beads; SIRT4 detected by western blotting; IgG control

## glutamate dehydrogenase 1 (GLUD1) (from UniProt P00367 54-558) (enzyme)
[1]
  binding: binds

B1: Sirtuin 4 (SIRT4), Flag-tagged, overexpressed by lentivirus (enzyme, UniProt Q9Y6E7 29-314)
chain: T1 sequence
[2]
  binding: binds
